This note sets out measurements from publication doi:10.1101/2021.04.08.439049.

Sequences of proteins named here, by UniProt entry; tags and fusion partners are left off.
UniProt P49841: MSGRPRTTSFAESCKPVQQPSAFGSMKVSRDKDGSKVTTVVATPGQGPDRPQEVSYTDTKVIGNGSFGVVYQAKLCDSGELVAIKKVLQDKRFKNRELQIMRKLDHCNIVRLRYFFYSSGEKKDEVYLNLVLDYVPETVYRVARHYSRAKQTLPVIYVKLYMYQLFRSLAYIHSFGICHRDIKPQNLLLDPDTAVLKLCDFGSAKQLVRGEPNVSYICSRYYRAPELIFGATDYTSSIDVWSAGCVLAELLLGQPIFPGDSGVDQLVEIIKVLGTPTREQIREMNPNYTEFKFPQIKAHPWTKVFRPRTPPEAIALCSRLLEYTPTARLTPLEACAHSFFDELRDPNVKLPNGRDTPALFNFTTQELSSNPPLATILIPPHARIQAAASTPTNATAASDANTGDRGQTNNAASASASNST
UniProt P10644: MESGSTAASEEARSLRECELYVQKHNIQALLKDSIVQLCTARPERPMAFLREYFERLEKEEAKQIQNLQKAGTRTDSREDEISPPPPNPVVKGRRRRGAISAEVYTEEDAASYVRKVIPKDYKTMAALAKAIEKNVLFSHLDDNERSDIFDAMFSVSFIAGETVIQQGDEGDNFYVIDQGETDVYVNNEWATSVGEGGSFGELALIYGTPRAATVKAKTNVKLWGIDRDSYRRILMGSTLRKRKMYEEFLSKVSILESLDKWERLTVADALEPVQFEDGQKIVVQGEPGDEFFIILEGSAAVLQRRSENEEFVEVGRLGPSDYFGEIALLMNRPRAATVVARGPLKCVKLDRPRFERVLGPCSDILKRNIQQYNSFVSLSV

Experiment [1] deals with GST-GSK3b (Abcam) (UniProt P49841). In words: ELISA. (An ELISA detects its analyte on a solid surface through an enzyme-linked reagent.)
The target of experiment [2] is His-PRKAR1a (Sino Biological) (UniProt P10644). The experiment is described as follows: ELISA.
In experiment [3] the target is myc-GSK3β wild type in HEK293 cells (human) (UniProt P49841). The experiment is described as follows: co-IP.
Experiment [4] has as its target myc-tagged PRKAR1a in HEK293 cells (human) (UniProt P10644). In words: co-IP.

These are yes or no findings as the source states them, for the method shown. For some of these results: In cells and extracts the contact can be indirect. Some results given as binding are weak or reduced against the parent protein; the word gives no strength. Tags and fused reporters may be left off the sequences shown.

B1: Myc-HK2 protein (OriGene) (enzyme, UniProt P52789 1-917)
chain: MIASHLLAYFFTELNHDQVQKVDQYLYHMRLSDETLLEISKRFRKEMEKGLGATTHPTAAVKMLPTFVRSTPDGTEHGEFLALDLGGTNFRVLWVKVTDNGLQKVEMENQIYAIPEDIMRGSGTQLFDHIAECLANFMDKLQIKDKKLPLGFTFSFPCHQTKLDESFLVSWTKGFKSSGVEGRDVVALIRKAIQRRGDFDIDIVAVVNDTVGTMMTCGYDDHNCEIGLIVGTGSNACYMEEMRHIDMVEGDEGRMCINMEWGAFGDDGSLNDIRTEFDQEIDMGSLNPGKQLFEKMISGMYMGELVRLILVKMAKEELLFGGKLSPELLNTGRFETKDISDIEGEKDGIRKAREVLMRLGLDPTQEDCVATHRICQIVSTRSASLCAATLAAVLQRIKENKGEERLRSTIGVDGSVYKKHPHFAKRLHKTVRRLVPGCDVRFLRSEDGSGKGAAMVTAVAYRLADQHRARQKTLEHLQLSHDQLLEVKRRMKVEMERGLSKETHASAPVKMLPTYVCATPDGTEKGDFLALDLGGTNFRVLLVRVRNGKWGGVEMHNKIYAIPQEVMHGTGDELFDHIVQCIADFLEYMGMKGVSLPLGFTFSFPCQQNSLDESILLKWTKGFKASGCEGEDVVTLLKEAIHRREEFDLDVVAVVNDTVGTMMTCGFEDPHCEVGLIVGTGSNACYMEEMRNVELVEGEEGRMCVNMEWGAFGDNGCLDDFRTEFDVAVDELSLNPGKQRFEKMISGMYLGEIVRNILIDFTKRGLLFRGRISERLKTRGIFETKFLSQIESDCLALLQVRAILQHLGLESTCDDSIIVKEVCTVVARRAAQLCGAGMAAVVDRIRENRGLDALKVTVGVDGTLYKLHPHFAKVMHETVKDLAPKCDVSFLQSEDGSGKGAALITAVACRIREAGQR
With B1, the binding result in experiment [1] and in experiment [2] was “binds” throughout.

B2: HA-tagged HK2 (HK2-HA), wild type, in HEK293 cells (enzyme, UniProt P27881 1-917)
chain: MIASHMIACLFTELNQNQVQKVDQFLYHMRLSDETLLEISRRFRKEMEKGLGATTHPTAAVKMLPTFVRSTPDGTEHGEFLALDLGGTNFRVLRVRVTDNGLQRVEMENQIYAIPEDIMRGSGTQLFDHIAECLANFMDKLQIKEKKLPLGFTFSFPCHQTKLDESFLVSWTKGFKSSGVEGRDVVDLIRKAIQRRGDFDIDIVAVVNDTVGTMMTCGYDDQNCEIGLIVGTGSNACYMEEMRHIDMVEGDEGRMCINMEWGAFGDDGTLNDIRTEFDREIDMGSLNPGKQLFEKMISGMYMGELVRLILVKMAKAELLFQGKLSPELLTTGSFETKDVSDIEEDKDGIEKAYQILMRLGLNPLQEDCVATHRICQIVSTRSASLCAATLAAVLWRIKENKGEERLRSTIGVDGSVYKKHPHFAKRLHKAVRRLVPDCDVRFLRSEDGSGKGAAMVTAVAYRLADQHRARQKTLESLKLSHEQLLEVKRRMKVEMEQGLSKETHAVAPVKMLPTYVCATPDGTEKGDFLALDLGGTNFRVLLVRVRNGKRRGVEMHNKIYSIPQEVMHGTGEELFDHIVQCIADFLEYMGMKGVSLPLGFTFSFPCQQNSLDQSILLKWTKGFKASGCEGEDVVTLLKEAIHRREEFDLDVVAVVNDTVGTMMTCGYEDPHCEVGLIVGTGSNACYMEEMRNVELVDGEEGRMCVNMEWGAFGDNGCLDDLRTVFDVAVDELSLNPGKQRFEKMISGMYLGEIVRNILIDFTKRGLLFRGRISERLKTRGIFETKFLSQIESDCLALLQVRAILRHLGLESTCDDSIIVKEVCTVVARRAAQLCGAGMAAVVDKIRENRGLDNLKVTVGVDGTLYKLHPHFAKVMHETVRDLAPKCDVSFLESEDGSGKGAALITAVACRIREAGQR
Turning to B2, the binding result in experiment [3] and in experiment [4] was “binds” throughout.
